doi:10.1101/2022.06.24.497539
These are yes or no findings as the source states them, for the method shown. Binding seen in cells or lysates may run through a third protein. Some binding calls cover weakened binding; strength is not graded here.

Protein sequences, listed by entry. Tags and fused reporters are not part of them. Residues count along the entry.
UniProt P00367, residues 54-558: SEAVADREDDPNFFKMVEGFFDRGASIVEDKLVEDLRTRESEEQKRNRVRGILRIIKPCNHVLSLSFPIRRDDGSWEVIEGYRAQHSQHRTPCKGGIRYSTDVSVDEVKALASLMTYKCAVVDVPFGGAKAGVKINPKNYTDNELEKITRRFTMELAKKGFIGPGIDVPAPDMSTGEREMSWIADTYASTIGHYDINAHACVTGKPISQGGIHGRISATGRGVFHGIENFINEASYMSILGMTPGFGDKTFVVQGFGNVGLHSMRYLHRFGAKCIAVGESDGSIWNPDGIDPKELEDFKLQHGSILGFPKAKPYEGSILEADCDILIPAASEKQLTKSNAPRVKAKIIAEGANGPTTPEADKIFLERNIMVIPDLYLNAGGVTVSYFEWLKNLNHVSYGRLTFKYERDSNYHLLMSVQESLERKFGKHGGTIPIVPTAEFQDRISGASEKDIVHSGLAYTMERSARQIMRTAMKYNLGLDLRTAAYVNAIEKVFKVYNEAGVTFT
UniProt P26443, residues 54-558: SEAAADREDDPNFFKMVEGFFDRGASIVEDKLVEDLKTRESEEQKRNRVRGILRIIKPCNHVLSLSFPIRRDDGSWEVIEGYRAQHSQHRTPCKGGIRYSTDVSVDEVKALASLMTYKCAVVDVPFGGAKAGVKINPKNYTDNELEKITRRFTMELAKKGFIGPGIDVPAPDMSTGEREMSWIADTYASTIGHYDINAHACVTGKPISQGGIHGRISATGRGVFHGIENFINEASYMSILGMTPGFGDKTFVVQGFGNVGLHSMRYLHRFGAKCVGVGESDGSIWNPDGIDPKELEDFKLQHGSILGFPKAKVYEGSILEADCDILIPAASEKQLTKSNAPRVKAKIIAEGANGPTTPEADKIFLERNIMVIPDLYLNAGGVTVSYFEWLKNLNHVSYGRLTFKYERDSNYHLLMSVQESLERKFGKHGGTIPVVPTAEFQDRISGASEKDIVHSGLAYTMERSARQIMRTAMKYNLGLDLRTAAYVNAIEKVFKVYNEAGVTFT

Key:
Assay in all cases: cross-linking
[1] = target: Glutamate dehydrogenase (DHE3), human (HEK293 mitochondria) (human (endogenous in HEK293)) (UniProt P00367)
[2] = target: Glutamate dehydrogenase (DHE3), mouse (mouse (endogenous in gastrocnemius muscle)) (UniProt P26443)
[3] = target: THIL (mouse (endogenous in gastrocnemius muscle)) (UniProt Q8QZT1)

For “Glutamate dehydrogenase (DHE3), human (HEK293 mitochondria) (from UniProt P00367 54-558) (enzyme)”, the binding [1] was “binds”.

“Glutamate dehydrogenase (DHE3), mouse (from UniProt P26443 54-558) (enzyme)” was tested, and the binding [2] was “binds”.

B1: THIL (enzyme, UniProt Q8QZT1 31-424)
chain: ASKPTLNEVVIVSAIRTPIGSFLGSLASQPATKLGTAAIQGAIEKAGIPKEEVKEVYMGNVIQGGEGQAPTRQATLGAGLPISTPCTTVNKVCASGMKAIMMASQSLMCGHQDVMVAGGMESMSNVPYVMSRGATPYGGVKLEDLIVKDGLTDVYNKIHMGNCAENTAKKMNISRQEQDTYALSSYTRSKEAWDAGKFASEITPITISVKGKPDVVVKEDEEYKRVDFSKVPKLKTVFQKENGTITAANASTLNDGAAALVLMTAEAAQRLNVKPLARIAAFADAAVDPIDFPLAPAYAVPKVLKYAGLKKEDIAMWEVNEAFSVVVLANIKMLEIDPQKVNIHGGAVSLGHPIGMSGARIVVHMAHALKPGEFGLASICNGGGGASALLIEKL
With B1 the binding [3] was “binds”.
